PMC8630118
Results are given in words; binding and its absence hold for the method and conditions named. Binding seen in cells or lysates may run through a third protein. Some results given as binding are weak or reduced against the parent protein; the word gives no strength. Where a sequence is shown, tags or fusion partners need not be part of it.

The chains behind the UniProt entries cited, without tags or fusion partners.
UniProt O15198: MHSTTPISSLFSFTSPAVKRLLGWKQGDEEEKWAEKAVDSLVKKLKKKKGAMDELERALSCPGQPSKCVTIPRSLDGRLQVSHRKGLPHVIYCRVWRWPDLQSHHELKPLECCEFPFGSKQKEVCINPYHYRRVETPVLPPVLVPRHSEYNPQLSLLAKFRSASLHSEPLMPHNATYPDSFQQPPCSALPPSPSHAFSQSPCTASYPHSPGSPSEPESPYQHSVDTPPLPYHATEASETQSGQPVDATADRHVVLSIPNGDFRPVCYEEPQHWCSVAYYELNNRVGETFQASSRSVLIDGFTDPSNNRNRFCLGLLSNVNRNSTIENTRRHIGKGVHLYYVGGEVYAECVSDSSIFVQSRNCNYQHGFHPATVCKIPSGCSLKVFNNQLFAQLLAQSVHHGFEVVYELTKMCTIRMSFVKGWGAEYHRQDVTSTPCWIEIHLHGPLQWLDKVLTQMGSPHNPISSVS

Biological target: Flag-tagged SMAD9 (UniProt O15198)
Assay: co-IP; HEK293T cells transfected with Myc-ASB2 and Flag-SMAD9, 24 h after transfection; Flag-immunoprecipitates (1 mg protein, 10 µL beads, overnight at 4 °C; lysis buffer 1% CHAPS, 150 mM NaCl, 20 mM MOPS, 1 mM EDTA, 10% glycerol), SDS-PAGE and immunoblot

binding: binds
B1: Myc-tagged ASB2 (Ankyrin repeat and SOCS box containing 2) (protein, UniProt Q96Q27 1-635)
chain: MATQISTRGSQCTIGQEEYSLYSSLSEDELVQMAIEQSLADKTRGPTTAEATASACTNRQPAHFYPWTRSTAPPESSPARAPMGLFQGVMQKYSSSLFKTSQLAPADPLIKAIKDGDEEALKTMIKEGKNLAEPNKEGWLPLHEAAYYGQVGCLKVLQRAYPGTIDQRTLQEETAVYLATCRGHLDCLLSLLQAGAEPDISNKSRETPLYKACERKNAEAVKILVQHNADTNHRCNRGWTALHESVSRNDLEVMQILVSGGAKVESKNAYGITPLFVAAQSGQLEALRFLAKYGADINTQASDNASALYEACKNEHEEVVEFLLSQGADANKTNKDGLLPLHIASKKGNYRIVQMLLPVTSRTRIRRSGVSPLHLAAERNHDEVLEALLSARFDVNTPLAPERARLYEDRRSSALYFAVVNNNVYATELLLQHGADPNRDVISPLLVAIRHGCLRTMQLLLDHGANIDAYIATHPTAFPATIMFAMKCLSLLKFLMDLGCDGEPCFSCLYGNGPHPPAPQPSSRFNDAPAADKEPSVVQFCEFVSAPEVSRWAGPIIDVLLDYVGNVQLCSRLKEHIDSFEDWAVIKEKAEPPRPLAHLCRLRVRKAIGKYRIKLLDTLPLPGRLIRYLKYENTQ
